Measured values taken from patent US20190376122.
A negative result means that nothing was seen under these conditions.

Chains of the proteins cited; added tags and fusions are not shown. Residues count along the entry.
UniProt P0AGE0, 2-178: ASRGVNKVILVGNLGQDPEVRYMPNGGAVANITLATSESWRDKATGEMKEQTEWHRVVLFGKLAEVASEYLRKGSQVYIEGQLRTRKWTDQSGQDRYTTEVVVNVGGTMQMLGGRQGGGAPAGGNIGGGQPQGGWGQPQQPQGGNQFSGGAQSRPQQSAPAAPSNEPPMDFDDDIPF

Biological target: E. coli SSB (Escherichia coli) (UniProt P0AGE0)
Assay: binding assay
Details: salt mixture 350 mM NaCl, 600 mM KCl, 150 mM Mg(OAc)2; no measurable binding; 25 C; purified recombinant protein; label: dT-DABCYL and dT-FAM internal; single-stranded DNA

**Q.** Does “GGCCCGTAGGAGGAAAGGACATCTTCTAGCATACGGGCCGTCAAGTTCATGGCCAGTCAAGTCGTCAGAAATTTCGCACCAC [MB molecular beacon]” bind?
**A.** no binding
